# Laboratory results: PubChem BioAssay AID1224828 (NIAID, 2016)
# Assay: 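Find genes required for NF-kappaB p65 moving into the nucleus after LPS in mouse macrophages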 (primary screen)
# Cell system: mouse RAW264.7 G9 macrophage reporter cells (GFP-p65, Tnf promoter-mCherry)
# Reagents: siRNA pool against mouse genes, 100 nM
# Duration: 2 days siRNA transfection, then 40 min LPS before fixation
# Conditions: LPS (Salmonella minnesota R595) at 10 ng/ml
# Measurement: 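Microscopy ratio of nuclear to perinuclear-ring GFP-p65 signal, scaled to the plate median; gene score is the average of two replicate robust z-scores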
# Direction: p65 translocation robust z-score: higher = more nuclear NF-kappaB p65 after LPS than the plate median; nuclear/cytoplasmic p65 ratio: higher = more nuclear NF-kappaB p65
# Call rule: 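Active if robust z is above 3.3 (negative regulators) or below -1.56, the Tlr4 control median (positive regulators); activity score 50 or more; control wells not called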
# Meaning of the calls: active = hit (p65 shift raised or lowered); inactive = no clear change
# Shown is an unselected part of about 17,000 deposited reagents. Over the whole deposit, 762 (4.5%) were called active. 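Active calls include both raised and lowered p65 entry, mostly lowered; wells with fewer than 50 cells lack a z-score.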 The raw values are shown without normalisation. The numbers tell different reagents against one gene apart. No sequences are given here.
gene,pool no.,p65 translocation robust z-score,"nuclear/cytoplasmic p65 ratio, rep 1","nuclear/cytoplasmic p65 ratio, rep 2",low cell count flag,activity call
Or13a26 (GeneID 258964),1,0.12,1.46,1.38,enough cells to score,inactive
Or8g53 (GeneID 258605),1,0.15,1.34,1.26,enough cells to score,inactive
Cndp2 (GeneID 66054),1,-0.32,1.57,1.71,enough cells to score,inactive
Ubxn1 (GeneID 225896),1,-0.04,1.55,1.55,enough cells to score,inactive
Mrpl10 (GeneID 107732),1,0.07,1.81,1.65,enough cells to score,inactive
Hvcn1 (GeneID 74096),1,-1.09,1.37,1.32,enough cells to score,inactive
Hamp (GeneID 84506),1,0.27,1.73,1.54,enough cells to score,inactive
Or6b6 (GeneID 259037),1,1.98,1.71,1.29,enough cells to score,inactive
Tpd52l2 (GeneID 66314),1,-0.75,1.44,1.39,enough cells to score,inactive
Gal3st2 (GeneID 381334),1,,1.28,1.18,fewer than 50 cells per well; well left out of scoring,inactive
Tmem88 (GeneID 67020),1,,1.11,1.51,fewer than 50 cells per well; well left out of scoring,inactive
Fgf2os (GeneID 329626),1,-0.89,1.38,1.28,enough cells to score,inactive
Amot (GeneID 27494),1,1.54,1.84,1.92,enough cells to score,inactive
Smarcc1 (GeneID 20588),1,-1.16,1.43,1.35,enough cells to score,inactive
Ranbp2 (GeneID 19386),1,-0.94,1.45,1.32,enough cells to score,inactive
Or13c7d (GeneID 29849),1,-0.02,1.5,1.6,enough cells to score,inactive
E2f6 (GeneID 50496),1,-2.16,0.997,1.25,enough cells to score,active

No new results follow: 6 of the entries above.
gene,pool no.,p65 translocation robust z-score,"nuclear/cytoplasmic p65 ratio, rep 1","nuclear/cytoplasmic p65 ratio, rep 2",low cell count flag,activity call
Ubxn1 (GeneID 225896),1,-0.04,1.55,1.55,enough cells to score,inactive
Mrpl10 (GeneID 107732),1,0.07,1.81,1.65,enough cells to score,inactive
Hvcn1 (GeneID 74096),1,-1.09,1.37,1.32,enough cells to score,inactive
Hamp (GeneID 84506),1,0.27,1.73,1.54,enough cells to score,inactive
Or6b6 (GeneID 259037),1,1.98,1.71,1.29,enough cells to score,inactive
Tpd52l2 (GeneID 66314),1,-0.75,1.44,1.39,enough cells to score,inactive

The listing continues.
gene,pool no.,p65 translocation robust z-score,"nuclear/cytoplasmic p65 ratio, rep 1","nuclear/cytoplasmic p65 ratio, rep 2",low cell count flag,activity call
Ccne1 (GeneID 12447),1,0.16,1.49,1.4,enough cells to score,inactive
Chml (GeneID 12663),1,-0.65,1.33,1.34,enough cells to score,inactive
Rgs20 (GeneID 58175),1,0.42,1.62,1.59,enough cells to score,inactive
Or6c33 (GeneID 258670),1,-0.04,1.44,1.3,enough cells to score,inactive
Sez6 (GeneID 20370),1,,1.09,1.18,fewer than 50 cells per well; well left out of scoring,inactive
Or7e170 (GeneID 258555),1,,1.38,1.4,fewer than 50 cells per well; well left out of scoring,inactive
Ndufb9 (GeneID 66218),1,-0.93,1.64,1.44,enough cells to score,inactive
Grpel1 (GeneID 17713),1,-1.05,1.56,1.33,enough cells to score,inactive
S1pr5 (GeneID 94226),1,,1.2,1.56,fewer than 50 cells per well; well left out of scoring,inactive
Plod3 (GeneID 26433),1,-0.28,1.34,1.15,enough cells to score,inactive
Dicer1 (GeneID 192119),1,,1.36,1.57,fewer than 50 cells per well; well left out of scoring,inactive
Ankrd40 (GeneID 71452),1,,1.2,1.24,fewer than 50 cells per well; well left out of scoring,inactive
Bgn (GeneID 12111),1,-0.48,1.53,1.55,enough cells to score,inactive
Bicd1 (GeneID 12121),1,-0.73,1.54,1.47,enough cells to score,inactive
Irf1 (GeneID 16362),1,0.55,1.55,1.45,enough cells to score,inactive
Ankrd17 (GeneID 81702),1,1.3,1.79,1.89,enough cells to score,inactive
Las1l (GeneID 76130),1,1.12,1.51,1.45,enough cells to score,inactive
4930465K10Rik (GeneID 67640),1,,1.51,1.29,fewer than 50 cells per well; well left out of scoring,inactive
Cox19 (GeneID 68033),1,,1.28,1.32,fewer than 50 cells per well; well left out of scoring,inactive
Slc8a1 (GeneID 20541),1,-0.57,1.4,1.47,enough cells to score,inactive
Slc8a1 (GeneID 20541),2,-0.49,1.48,1.49,enough cells to score,inactive
Kcnj15 (GeneID 16516),1,-0.81,1.35,1.4,enough cells to score,inactive
Bpifb6 (GeneID 228796),1,0.82,1.35,1.64,enough cells to score,inactive
